This note sets out measurements from article PMC9604145.

By UniProt entry, the sequences of proteins in these tests, tags left out. Where a name states a change or a piece, a line headed by the entry shows the natural chain unless it says otherwise.
UniProt P31266: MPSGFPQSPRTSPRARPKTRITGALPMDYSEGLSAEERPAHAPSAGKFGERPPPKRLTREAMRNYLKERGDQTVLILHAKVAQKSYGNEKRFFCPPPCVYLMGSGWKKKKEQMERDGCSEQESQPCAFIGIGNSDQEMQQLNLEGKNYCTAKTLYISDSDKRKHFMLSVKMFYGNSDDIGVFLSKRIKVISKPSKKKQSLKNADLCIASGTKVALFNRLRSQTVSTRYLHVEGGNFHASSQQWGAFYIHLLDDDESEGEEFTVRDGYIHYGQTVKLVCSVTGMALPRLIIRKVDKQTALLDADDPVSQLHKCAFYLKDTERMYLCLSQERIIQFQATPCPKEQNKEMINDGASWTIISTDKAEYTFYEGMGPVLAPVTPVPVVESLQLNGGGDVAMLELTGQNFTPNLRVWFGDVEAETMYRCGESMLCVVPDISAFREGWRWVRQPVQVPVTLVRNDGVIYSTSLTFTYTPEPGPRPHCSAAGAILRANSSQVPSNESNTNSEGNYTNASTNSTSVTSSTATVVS

Results are given in words; binding and its absence hold for the method and conditions named. Some binding calls cover weakened binding; strength is not graded here.

In this test the target is T1, RITA1 (pEG202 two-hybrid construct) (UniProt Q96K30).
T1 sequence: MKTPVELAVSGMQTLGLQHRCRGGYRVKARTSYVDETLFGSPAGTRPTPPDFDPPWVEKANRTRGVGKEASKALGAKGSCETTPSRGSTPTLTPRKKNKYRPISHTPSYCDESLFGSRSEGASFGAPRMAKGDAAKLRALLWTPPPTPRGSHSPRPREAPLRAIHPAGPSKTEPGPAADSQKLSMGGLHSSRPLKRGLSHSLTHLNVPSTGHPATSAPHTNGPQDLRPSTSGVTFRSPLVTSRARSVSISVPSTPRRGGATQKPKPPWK
As to the kind of experiment: two-hybrid; Golemis-Brent hybrid system, EGY48 yeast cells; Rbpj constructs in pJG4-5 (transactivation domain), partners in pEG202 (LexA DNA binding); performed twice and in triplicate.
For the substance “murine Rbpj, wildtype (pJG4-5 two-hybrid construct) (from UniProt P31266 1-526)”, the binding result is recorded as “binds”. For the substance “murine Rbpj^EEFAL (E259A, E260A, F261A, A284V, L388A), pJG4-5 two-hybrid construct (from UniProt P31266 1-526)”, the binding result was “no binding”.

As to “murine Rbpj^FAL (F261A, A284V, L388A), pJG4-5 two-hybrid construct (from UniProt P31266 1-526)”, the binding entry is “no binding”.
